Construct, isoform or probe ends are uncertain for at least one entry. At least one result comes from cells or an extract, where the contact may be indirect. For part of these data: Negatives hold for the conditions tested. For part of these data: At least one verdict rests on a figure or table, not on a statement of the authors.
How the values were obtained:
[1] = molecular target: Runx1 (Mus musculus (BALB/c BMDC)) (UniProt Q03347); experiment: EMSA supershift; conditions: LPS, TNFa or SAG treated cells; EMSA with nuclear extracts and 32P-labeled probes, 4 ug antibody for supershift; pH and temperature not stated (cited protocols); protein in an extract; label: 32P
[2] = molecular target: Runx3 (Mus musculus (BALB/c BMDC)) (UniProt Q64131); experiment: EMSA supershift; conditions: LPS, TNFa or SAG treated cells; EMSA with nuclear extracts and 32P-labeled probes, 4 ug antibody for supershift; pH and temperature not stated (cited protocols); protein in an extract; label: 32P
[3] = molecular target: Runx1 (Mus musculus (BALB/c BMDC)) (UniProt Q03347); experiment: EMSA; conditions: LPS or TNFa treated cells; EMSA with nuclear extracts and 32P-labeled probes, 4 ug antibody for supershift; pH and temperature not stated (cited protocols); protein in an extract; label: 32P
[4] = molecular target: Runx3 (Mus musculus (BALB/c BMDC)) (UniProt Q64131); experiment: EMSA; conditions: LPS or TNFa treated cells; EMSA with nuclear extracts and 32P-labeled probes, 4 ug antibody for supershift; pH and temperature not stated (cited protocols); protein in an extract; label: 32P
[5] = molecular target: Runx1 (Homo sapiens (monocyte-derived DC)) (UniProt Q01196); experiment: EMSA supershift; conditions: SAG treated cells; EMSA with nuclear extracts and 32P-labeled probes, 4 ug antibody for supershift; pH and temperature not stated (cited protocols); protein in an extract; label: 32P
[6] = molecular target: Runx3 (Homo sapiens (monocyte-derived DC)) (UniProt Q13761); experiment: EMSA supershift; conditions: SAG treated cells; EMSA with nuclear extracts and 32P-labeled probes, 4 ug antibody for supershift; pH and temperature not stated (cited protocols); protein in an extract; label: 32P

By UniProt entry, the sequences of proteins in these tests, tags left out.
UniProt Q03347, whole entry: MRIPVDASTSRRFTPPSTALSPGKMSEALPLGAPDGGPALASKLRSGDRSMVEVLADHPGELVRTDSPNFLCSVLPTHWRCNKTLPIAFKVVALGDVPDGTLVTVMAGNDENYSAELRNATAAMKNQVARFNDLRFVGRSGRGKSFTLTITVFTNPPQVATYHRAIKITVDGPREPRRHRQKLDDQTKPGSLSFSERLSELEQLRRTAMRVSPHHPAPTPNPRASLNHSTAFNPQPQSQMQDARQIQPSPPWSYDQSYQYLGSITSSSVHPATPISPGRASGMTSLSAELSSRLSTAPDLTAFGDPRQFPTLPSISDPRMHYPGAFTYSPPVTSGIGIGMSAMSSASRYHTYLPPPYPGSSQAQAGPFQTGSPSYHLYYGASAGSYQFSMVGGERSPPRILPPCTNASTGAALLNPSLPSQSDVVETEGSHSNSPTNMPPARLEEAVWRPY
UniProt Q64131, whole entry: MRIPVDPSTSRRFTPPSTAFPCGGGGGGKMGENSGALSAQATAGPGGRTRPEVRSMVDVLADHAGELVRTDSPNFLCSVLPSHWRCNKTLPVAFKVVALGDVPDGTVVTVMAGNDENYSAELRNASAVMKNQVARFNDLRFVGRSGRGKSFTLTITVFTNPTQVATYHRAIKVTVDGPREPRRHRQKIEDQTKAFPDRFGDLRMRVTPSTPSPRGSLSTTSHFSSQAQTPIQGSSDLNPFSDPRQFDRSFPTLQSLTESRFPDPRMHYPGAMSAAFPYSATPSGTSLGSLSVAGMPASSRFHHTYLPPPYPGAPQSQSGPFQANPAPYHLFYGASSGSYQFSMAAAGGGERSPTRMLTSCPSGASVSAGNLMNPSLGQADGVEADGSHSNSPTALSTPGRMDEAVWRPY
UniProt Q01196, whole entry: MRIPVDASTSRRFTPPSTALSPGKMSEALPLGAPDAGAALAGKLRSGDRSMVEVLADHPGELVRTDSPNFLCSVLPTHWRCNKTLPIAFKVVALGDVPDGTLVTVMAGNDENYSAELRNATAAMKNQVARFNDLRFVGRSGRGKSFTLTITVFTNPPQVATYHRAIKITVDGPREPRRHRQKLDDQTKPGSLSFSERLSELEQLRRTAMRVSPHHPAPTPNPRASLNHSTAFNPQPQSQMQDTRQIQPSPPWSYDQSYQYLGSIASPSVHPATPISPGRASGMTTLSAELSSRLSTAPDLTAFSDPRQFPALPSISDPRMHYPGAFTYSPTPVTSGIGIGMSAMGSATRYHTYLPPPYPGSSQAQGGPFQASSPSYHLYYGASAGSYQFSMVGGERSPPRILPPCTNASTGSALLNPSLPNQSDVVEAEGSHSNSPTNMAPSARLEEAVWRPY
UniProt Q13761, whole entry: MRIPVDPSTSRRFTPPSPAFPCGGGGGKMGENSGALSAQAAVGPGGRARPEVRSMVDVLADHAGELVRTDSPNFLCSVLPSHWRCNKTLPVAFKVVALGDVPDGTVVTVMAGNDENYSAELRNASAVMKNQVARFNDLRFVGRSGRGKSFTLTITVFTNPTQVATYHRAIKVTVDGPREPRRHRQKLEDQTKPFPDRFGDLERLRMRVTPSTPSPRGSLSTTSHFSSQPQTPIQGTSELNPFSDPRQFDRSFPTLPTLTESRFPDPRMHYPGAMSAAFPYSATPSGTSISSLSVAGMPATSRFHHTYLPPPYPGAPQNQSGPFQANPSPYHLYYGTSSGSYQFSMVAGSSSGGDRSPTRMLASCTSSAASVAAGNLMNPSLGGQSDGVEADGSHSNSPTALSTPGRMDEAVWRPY

Sequence	binding result [1]	binding result [2]	binding result [3]	binding result [4]	binding result [5]	binding result [6]
TTTTCTGACTTTGCGGTGACACTGGGGACTTCCTTAGACCTCTCT (double strand) [Pr2]	binds	binds				
TTTTCTGACTTGAATTCGACACTGGGGACTTCCTTAGACCTCTCT (double strand) [Mut-Pr2]			no binding	no binding		
CCTCCCCATACCCCAGCTGTGGCCTTCCCG (double strand) [Pr3]					binds	binds
TGGCCCTTCAGCGAATTCCTTTCCCGTTTTCTGACTT (double strand) [Mut-Pr1]			no binding	no binding		
TTTTCTGCGTGGTGGTGTGGGGGGAAC (double strand) [Pr4]					binds	binds
TGGCCCTTCAGCTGTGGTCTTTCCCGTTTTCTGACTT (double strand) [Pr1]	binds	binds				

From article PMC7793297
